US8440830B2, “Tetrahydro-fused pyridines as histone deacetylase inhibitors” (4SC AG, priority 2007, dated 2013)
Some results were stated once for a whole list of compounds, not compound by compound.

Tested on: A549 NSCLC cells
Assay: Cell cycle analysis by flow cytometry
Assay type: cell-based, human
Settings: A549, 48 h treatment
Experimental: A549 NSCLC cells (ATTC CCL-185) are cultivated in DMEM with high glucose (supplemented with 10% FBS) at 5% CO2 and 37° C. in a humidified atmosphere under standard cell culture conditions. 24 h before compound treatment, cells are seeded at 5×10^4 cells/ml (=5×10^5 cells/10 cm cell culture dish) to allow logarithmic proliferation during the experiment. After 24 h, cells were treated with test compound or 0.5 vol % DMSO as a control. After 24 h and 48 h treatment, the culture medium is collected and detached, floating cells are collected by short centrifugation (5 min at 1200 rpm). Attached cells are washed once with 5 ml PBS, detached by treatment with 3 ml trypsin/EDTA solution (short incubation for 3-5 min) and—together with detached, floating cells—transferred into 15 ml Falcon tubes. The cell culture dish is washed with 10 ml DMEM to collect all remaining cells. After centrifugation for 5 min at 1200 rpm at room temperature, the supernatant is discarded and the cell pellet washed twice with 10 ml PBS. The supernatant is discarded, the cells resuspended in 4 ml ice-cold fixation solution (70 vol % ethanol, 30 vol % H2O; stored at −20° C.) and stored at −20° C. overnight. Next, 10 ml PBS (4° C.) is added to the cells, before centrifugation for 5 min at 1200 rpm (4° C.). The supernatant is discarded, the cell pellet washed once with 10 ml PBS (4° C.) and the cell pellet finally resuspended in about 1 ml staining solution (10 μg/ml RNAse A, 10 μg/ml propidiumiodide in PBS, final volume dependent on cell number). After incubation for 30 min at room temperature in the dark, cells are stored on ice and analyzed using the Becton Dickinson FACS Canto device. Analysis is done at an excitation of λ=488 nm with emission set as λ=600 nm.
Data analysis: Cells are analyzed according to size, granularity and propidiumiodide intensity. Size and granularity of cells are determined by measurement of forward scatter (FSC) and side scatter (SSC) of the λ=488 nm excitation light, respectively. To discriminate cells with 4N DNA content from cell doublets (two attached cells with 2N DNA content each), the ratio between the area under the propidiumiodide peak (PE-A) and the height of the propidiumiodide peak (PE-H) for each cell is determined. Cell doublets need more time to pass through the laser beam, which causes a broadening of the propidiumiodide peak and an increase of the ratio PE-A/PE-H. Using this analysis, cells in 4N and cell doublets appear as distinct clouds in a scatter plot and are excluded from the analysis. Thus, the area under the propidiumiodide peak at λ=600 nm (PE-A) is a measure for the DNA content of the cells. PE-A is blotted against the measured cell number in a histogram in order to determine the percentage of analyzed cells in an individual stage of the cell cycle.

Compound | concentration inducing potent apoptosis (cells with less than 2N chromosomal DNA) [µM]
Cc1ccc(OC(=O)N2CCc3nc(C(=O)Nc4ccccc4N)sc3C2)cc1 [Example 182, 4-methylphenyl 2-[(2-aminophenyl)carbamoyl]-6,7-dihydro[1,3]thiazolo[5,4-c]pyridine-5(4H)-carboxylate] | ≥ 10
COc1ccc(S(=O)(=O)N2CCc3nc(C(=O)Nc4ccccc4N)sc3C2)cc1 [Example 153, N-(2-aminophenyl)-5-[(4-methoxyphenyl)sulfonyl]-4,5,6,7-tetrahydro[1,3]thiazolo[5,4-c]pyridine-2-carboxamide] | ≥ 10
Nc1ccccc1NC(=O)c1nc2c(s1)CN(C(=O)Nc1cnc3ccccc3c1)CC2 [Example 12, N^2-(2-aminophenyl)-N5-quinolin-3-yl-6,7-dihydro[1,3]thiazolo[5,4-c]pyridine-2,5(4H)-dicarboxamide] | ≥ 3
COc1ccc(NC(=O)N2CCc3nc(C(=O)Nc4ccccc4N)sc3C2)cc1 [Example 3, N^2-(2-aminophenyl)-N5-(4-methoxyphenyl)-6,7-dihydro[1,3]thiazolo[5,4-c]pyridine-2,5(4H)-dicarboxamide] | ≥ 3
Nc1ccccc1NC(=O)c1nc2c(s1)CN(C(=O)OCc1cccnc1)CC2 [Example 189, Pyridin-3-ylmethyl 2-[(2-aminophenyl)carbamoyl]-6,7-dihydro[1,3]thiazolo[5,4-c]pyridine-5(4H)-carboxylate] | ≥ 3
Nc1ccccc1NC(=O)c1nc2c(s1)CN(C(=O)Nc1ccc(-c3ccccc3)cc1)CC2 [Example 1, N^2-(2-aminophenyl)-N5-biphenyl-4-yl-6,7-dihydro[1,3]thiazolo[5,4-c]pyridine-2,5(4H)-dicarboxamide] | ≥ 10
